Results on eleven targets are retold here after the supplement of paper PMC12819154, “High-throughput peptide-centric local stability assay extends protein–ligand identification to membrane proteins, tissues and bacteria” (Nature Structural & Molecular Biology, 2025).

The chains behind the UniProt entries cited, without tags or fusion partners. Where a name states a change or a piece, a line headed by the entry shows the natural chain unless it says otherwise.
UniProt Q8N8N7: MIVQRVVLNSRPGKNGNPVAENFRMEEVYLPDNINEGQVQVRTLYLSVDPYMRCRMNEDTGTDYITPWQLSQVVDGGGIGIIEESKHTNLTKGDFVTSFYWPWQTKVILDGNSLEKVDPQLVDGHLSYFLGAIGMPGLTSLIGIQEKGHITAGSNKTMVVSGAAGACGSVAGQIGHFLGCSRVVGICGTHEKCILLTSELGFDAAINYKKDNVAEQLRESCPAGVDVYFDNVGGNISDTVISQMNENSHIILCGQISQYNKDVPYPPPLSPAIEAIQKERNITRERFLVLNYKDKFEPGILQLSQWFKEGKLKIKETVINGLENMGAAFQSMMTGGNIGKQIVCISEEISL
UniProt Q8N684: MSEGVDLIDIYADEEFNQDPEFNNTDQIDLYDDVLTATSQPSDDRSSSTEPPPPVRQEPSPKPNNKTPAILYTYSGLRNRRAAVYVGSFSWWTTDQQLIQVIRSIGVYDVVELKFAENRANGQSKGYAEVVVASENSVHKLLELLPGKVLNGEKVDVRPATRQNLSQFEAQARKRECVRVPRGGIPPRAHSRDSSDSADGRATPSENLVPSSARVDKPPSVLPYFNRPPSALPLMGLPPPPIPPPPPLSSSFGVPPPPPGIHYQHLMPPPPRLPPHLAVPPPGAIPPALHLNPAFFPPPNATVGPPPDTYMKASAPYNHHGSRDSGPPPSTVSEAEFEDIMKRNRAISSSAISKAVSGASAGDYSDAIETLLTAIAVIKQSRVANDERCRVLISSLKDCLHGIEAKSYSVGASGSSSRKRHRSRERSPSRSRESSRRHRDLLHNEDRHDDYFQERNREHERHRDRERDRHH
UniProt Q8ND56: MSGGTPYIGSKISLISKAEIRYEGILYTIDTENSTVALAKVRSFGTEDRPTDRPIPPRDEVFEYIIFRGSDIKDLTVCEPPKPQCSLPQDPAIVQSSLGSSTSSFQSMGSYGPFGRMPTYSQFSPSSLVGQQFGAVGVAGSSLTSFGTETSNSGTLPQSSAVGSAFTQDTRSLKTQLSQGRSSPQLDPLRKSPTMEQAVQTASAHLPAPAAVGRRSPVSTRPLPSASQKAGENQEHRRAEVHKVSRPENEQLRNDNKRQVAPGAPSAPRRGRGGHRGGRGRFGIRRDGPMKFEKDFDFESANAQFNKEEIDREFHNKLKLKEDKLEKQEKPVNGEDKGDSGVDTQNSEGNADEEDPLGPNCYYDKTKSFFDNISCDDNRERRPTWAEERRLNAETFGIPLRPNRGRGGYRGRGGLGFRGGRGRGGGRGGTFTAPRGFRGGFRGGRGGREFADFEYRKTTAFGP
UniProt Q8TAM2: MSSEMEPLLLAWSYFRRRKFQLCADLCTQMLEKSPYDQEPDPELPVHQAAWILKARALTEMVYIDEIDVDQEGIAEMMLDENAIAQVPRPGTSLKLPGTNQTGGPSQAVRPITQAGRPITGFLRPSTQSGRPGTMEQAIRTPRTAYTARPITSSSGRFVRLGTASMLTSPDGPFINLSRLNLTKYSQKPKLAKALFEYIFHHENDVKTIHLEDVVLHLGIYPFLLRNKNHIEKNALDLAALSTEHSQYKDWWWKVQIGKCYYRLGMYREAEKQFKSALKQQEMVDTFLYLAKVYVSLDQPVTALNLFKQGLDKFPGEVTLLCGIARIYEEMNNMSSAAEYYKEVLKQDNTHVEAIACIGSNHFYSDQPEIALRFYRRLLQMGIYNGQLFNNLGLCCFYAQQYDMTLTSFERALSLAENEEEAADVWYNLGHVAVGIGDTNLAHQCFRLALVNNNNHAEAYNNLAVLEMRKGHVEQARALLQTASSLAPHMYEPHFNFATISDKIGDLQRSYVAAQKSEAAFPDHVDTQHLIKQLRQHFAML
UniProt Q8NBE8: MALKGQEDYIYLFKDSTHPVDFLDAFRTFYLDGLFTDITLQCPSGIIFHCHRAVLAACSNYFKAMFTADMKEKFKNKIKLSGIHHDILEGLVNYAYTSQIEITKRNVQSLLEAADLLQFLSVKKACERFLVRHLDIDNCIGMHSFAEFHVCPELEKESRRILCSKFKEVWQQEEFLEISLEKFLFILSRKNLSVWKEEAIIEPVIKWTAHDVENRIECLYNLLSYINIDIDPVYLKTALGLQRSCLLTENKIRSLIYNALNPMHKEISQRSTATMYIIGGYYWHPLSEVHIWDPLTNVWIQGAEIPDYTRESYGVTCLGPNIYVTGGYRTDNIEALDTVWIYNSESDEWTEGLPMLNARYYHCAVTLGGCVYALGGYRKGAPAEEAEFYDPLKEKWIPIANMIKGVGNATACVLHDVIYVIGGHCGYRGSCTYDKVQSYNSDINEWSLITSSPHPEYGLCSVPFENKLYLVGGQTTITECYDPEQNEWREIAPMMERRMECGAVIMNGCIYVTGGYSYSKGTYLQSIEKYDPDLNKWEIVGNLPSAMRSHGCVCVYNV
UniProt Q8N720: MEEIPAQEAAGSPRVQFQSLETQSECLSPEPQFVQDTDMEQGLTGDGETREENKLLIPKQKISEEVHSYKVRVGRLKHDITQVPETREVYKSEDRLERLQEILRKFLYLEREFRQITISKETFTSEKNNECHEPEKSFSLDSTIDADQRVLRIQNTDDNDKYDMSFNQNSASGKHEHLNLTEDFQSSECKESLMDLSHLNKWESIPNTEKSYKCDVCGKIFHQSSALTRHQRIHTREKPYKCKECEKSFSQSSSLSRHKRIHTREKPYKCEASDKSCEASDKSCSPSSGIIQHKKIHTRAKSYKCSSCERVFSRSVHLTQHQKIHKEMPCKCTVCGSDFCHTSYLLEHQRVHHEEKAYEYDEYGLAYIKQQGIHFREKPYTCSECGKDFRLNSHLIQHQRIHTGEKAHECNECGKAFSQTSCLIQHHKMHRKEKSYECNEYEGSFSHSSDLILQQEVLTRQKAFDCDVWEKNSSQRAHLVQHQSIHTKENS
UniProt Q8NFV4: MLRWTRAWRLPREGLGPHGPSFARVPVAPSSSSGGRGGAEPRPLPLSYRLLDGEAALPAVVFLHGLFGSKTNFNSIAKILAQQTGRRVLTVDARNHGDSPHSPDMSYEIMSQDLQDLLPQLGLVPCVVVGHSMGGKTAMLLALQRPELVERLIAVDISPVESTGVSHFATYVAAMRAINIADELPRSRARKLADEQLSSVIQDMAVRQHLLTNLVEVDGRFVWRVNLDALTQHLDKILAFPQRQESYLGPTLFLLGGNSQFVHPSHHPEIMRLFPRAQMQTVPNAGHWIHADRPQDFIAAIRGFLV
UniProt Q8NHH9: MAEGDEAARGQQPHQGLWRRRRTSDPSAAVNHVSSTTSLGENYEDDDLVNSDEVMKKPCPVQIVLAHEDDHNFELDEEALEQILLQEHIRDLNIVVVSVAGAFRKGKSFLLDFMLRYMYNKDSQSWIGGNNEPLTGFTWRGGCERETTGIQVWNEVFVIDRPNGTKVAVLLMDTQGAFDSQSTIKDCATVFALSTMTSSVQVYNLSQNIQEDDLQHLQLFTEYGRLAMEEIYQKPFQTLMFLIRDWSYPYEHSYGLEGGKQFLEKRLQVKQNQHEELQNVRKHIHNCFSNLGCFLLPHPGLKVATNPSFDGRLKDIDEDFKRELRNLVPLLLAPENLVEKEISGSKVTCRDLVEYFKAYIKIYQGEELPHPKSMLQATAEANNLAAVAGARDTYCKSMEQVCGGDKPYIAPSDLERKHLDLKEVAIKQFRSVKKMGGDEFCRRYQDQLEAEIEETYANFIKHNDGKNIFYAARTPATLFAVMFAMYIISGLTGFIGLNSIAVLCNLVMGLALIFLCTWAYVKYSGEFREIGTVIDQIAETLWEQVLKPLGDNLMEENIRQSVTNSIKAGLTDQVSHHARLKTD
UniProt Q8N5M4: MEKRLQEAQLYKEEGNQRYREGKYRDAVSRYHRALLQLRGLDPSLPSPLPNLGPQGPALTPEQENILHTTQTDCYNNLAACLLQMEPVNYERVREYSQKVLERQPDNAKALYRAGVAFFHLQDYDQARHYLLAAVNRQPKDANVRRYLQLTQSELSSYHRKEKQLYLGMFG
UniProt Q8N806: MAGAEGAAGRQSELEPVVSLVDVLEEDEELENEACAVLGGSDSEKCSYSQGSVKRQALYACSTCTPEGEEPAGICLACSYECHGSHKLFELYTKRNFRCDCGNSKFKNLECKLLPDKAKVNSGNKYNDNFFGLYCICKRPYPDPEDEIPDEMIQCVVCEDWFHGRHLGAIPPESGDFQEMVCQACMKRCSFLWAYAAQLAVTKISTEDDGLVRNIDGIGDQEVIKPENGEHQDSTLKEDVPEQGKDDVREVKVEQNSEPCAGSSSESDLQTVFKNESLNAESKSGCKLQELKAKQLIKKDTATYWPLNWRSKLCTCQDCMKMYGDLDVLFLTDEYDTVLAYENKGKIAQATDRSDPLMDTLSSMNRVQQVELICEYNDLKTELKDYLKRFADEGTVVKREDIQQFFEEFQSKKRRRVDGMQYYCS
UniProt Q8NBN3: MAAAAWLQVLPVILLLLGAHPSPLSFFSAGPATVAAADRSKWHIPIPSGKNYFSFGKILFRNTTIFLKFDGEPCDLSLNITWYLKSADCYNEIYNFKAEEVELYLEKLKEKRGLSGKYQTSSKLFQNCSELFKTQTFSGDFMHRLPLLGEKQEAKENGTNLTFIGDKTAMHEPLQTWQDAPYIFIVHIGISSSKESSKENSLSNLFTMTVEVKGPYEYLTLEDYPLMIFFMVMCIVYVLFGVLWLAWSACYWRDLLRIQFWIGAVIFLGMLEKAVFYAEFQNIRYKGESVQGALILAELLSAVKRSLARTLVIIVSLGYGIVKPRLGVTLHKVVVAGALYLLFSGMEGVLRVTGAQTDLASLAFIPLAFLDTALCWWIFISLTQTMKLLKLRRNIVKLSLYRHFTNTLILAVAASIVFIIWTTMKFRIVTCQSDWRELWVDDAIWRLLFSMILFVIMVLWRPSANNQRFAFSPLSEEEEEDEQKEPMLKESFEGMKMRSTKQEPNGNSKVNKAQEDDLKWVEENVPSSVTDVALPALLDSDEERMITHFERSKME

This is one part of the list. Small differences around the control level are noise.

Compound in the test: CN[C@@H]1C[C@H]2O[C@@](C)([C@@H]1OC)n1c3ccccc3c3c4c(c5c6ccccc6n2c5c31)C(=O)NC4 [staurosporine]
The experiment in a line: log2 fold change of tryptic peptide abundance, ligand vs vehicle (limited proteolysis) (log2 ratio); higher = more trypsin-susceptible (destabilized). The settings on record: ligand concentration: 20 uM; sample: K562 cleared lysate; digestion: 4 min, 22 C (HT-PELSA RT4min, Orbitrap Astral).
Regarding “PTGR2 (peptide sequence: VVLNSRPGK, peptide start residue: 6) (UniProt Q8N8N7)”, the log2 fold change was 0.427. Take “CPSF7 (peptide sequence: VDVRPATR, peptide start residue: 155) (UniProt Q8N684)”: the log2 fold change was determined as 0.276. With “LSM14A (peptide sequence: RPTWAEER, peptide start residue: 382) (UniProt Q8ND56)” the figure was 0.214.

Take “UniProt Q8TAM2 (peptide sequence: SEAAFPDHVDTQHLIK, peptide start residue: 517)”: the log2 fold change is 0.321. With “UniProt Q8NBE8 (peptide sequence: EIAPMMERR, peptide start residue: 490)”, the log2 fold change was -0.0253.

Consider “ZNF655 (peptide sequence: SCSPSSGIIQHK, peptide start residue: 283) (UniProt Q8N720)”, for which the log2 fold change was -0.979. As to “ABHD11 (peptide sequence: AINIADELPR, peptide start residue: 186) (UniProt Q8NFV4)”, the log2 fold change was -0.0858. As for “ATL2 (peptide sequence: IYQGEELPHPK, peptide start residue: 362) (UniProt Q8NHH9)”, the log2 fold change turned out to be 0.444. Turning to “TTC9C (peptide sequence: YLQLTQSELSSYHR, peptide start residue: 147) (UniProt Q8N5M4)”, the log2 fold change was -0.124. As to “UBR7 (peptide sequence: TELKDYLKR, peptide start residue: 381) (UniProt Q8N806)”, the log2 fold change is -0.719. As to “TMEM87A (peptide sequence: MITHFER, peptide start residue: 545) (UniProt Q8NBN3)”, the log2 fold change is 0.261.
